The supplement of paper PMC12889115
Some of the results follow. These are raw signals, not scaled to a control.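 Primary screen: polymyxin B was added at a level permeabilizing Salmonella outer membranes while sparing inner membranes. DMSO wells, both with and without polymyxin B, established maximum growth. Plate-to-plate variation meant each plate was ranked on its own, and the lowest-OD600 compounds were selected as hits.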

Tested on: Salmonella enterica serovar Typhimurium SL1344
Assay: bacterial growth OD600 after 18 h with compound and polymyxin B; higher = more bacterial growth (less inhibition)
Conditions: 50 µM, Mueller-Hinton broth

Structure (SMILES)	bacterial growth OD600 (polymyxin B 0.75 µg/mL)	bacterial growth OD600 (polymyxin B 1 µg/mL)
O=C(CCc1cnccn1)N1CCCC(CCc2cccc(F)c2)C1 (stereo unspecified)	0.881	–
CN(CC1CCCCO1)C(=O)c1ccc2nc(C3CCCCC3)oc2c1 (stereo unspecified)	–	0.861
Cc1c(C(C)NCc2nccn2C)cnn1-c1cccc(F)c1 (stereo unspecified)	–	1.04
Cc1ccccc1C(=O)Nc1ccnn1C1CCN(C(=O)CCc2c(C)noc2C)CC1	–	1.08
CC(C)CN1CCC(C(=O)Nc2cccc(-c3cccc(F)c3)c2)CC1	–	0.859
CSc1cccc(CN2CCC(N3CCCC(C(=O)NC4CC4)C3)CC2)c1 (stereo unspecified)	0.769	–
CCN(C)CC1(O)CCCN(Cc2cccc(F)c2F)C1=O (stereo unspecified)	–	0.955
COc1cccc(CN(C)CC2CCCN(CCc3ccc(Cl)cc3)C2)c1OC (stereo unspecified)	–	0.788
CC(=O)c1ccccc1-c1ccc2c(c1)CC(CNC(=O)c1occc1C)O2 (stereo unspecified)	0.504	–
COC(=O)CC[C@H](NC(=O)c1ccc(-n2cc(NC(=O)c3ccc(C)cc3C)cn2)cc1)C(=O)OC	0.775	–
O=C(Cn1nnnc1CN1CCCCCC1)NCC1CCCO1 (stereo unspecified)	0.963	–
CC(C)(C)CN1CCCC2(CCN(C(=O)CCC3CCCC3)C2)C1=O (stereo unspecified)	–	0.862
COc1ccc2c(c1)-c1nc(-n3ncc(C(=O)N4CCN(CCO)CC4)c3C3CC3)ncc1CC2	0.836	–
Cc1ccc(CN(C)C(=O)c2cc(NC(=O)CC3CCCC3)cc3nc(C4CCCO4)n(C)c23)cc1 (stereo unspecified)	0.898	–
O=C1CCC(CCC(=O)N2CCCC(CCc3ccc(F)c(F)c3)C2)=NN1 (stereo unspecified)	0.58	–
CN(C(=O)Cn1cccn1)C(Cc1ccccc1)C1CCN(C(=O)c2cnn(-c3ccccc3)c2)CC1 (stereo unspecified)	0.767	–

Whole records as entered above. Values in the order: bacterial growth OD600 (polymyxin B 0.75 µg/mL) | bacterial growth OD600 (polymyxin B 1 µg/mL)
Cc1ccc(CN(C)C(=O)c2cc(NC(=O)CC3CCCC3)cc3nc(C4CCCO4)n(C)c23)cc1 (stereo unspecified) as listed: 0.898 | –
Cc1ccccc1C(=O)Nc1ccnn1C1CCN(C(=O)CCc2c(C)noc2C)CC1 as listed: – | 1.08

The list goes on:

Structure (SMILES)	bacterial growth OD600 (polymyxin B 0.75 µg/mL)	bacterial growth OD600 (polymyxin B 1 µg/mL)
CCN1CC(CNc2ccc(-c3nc(CC(C)C)no3)cn2)CC1=O (stereo unspecified)	–	0.934
Cc1c(CC(=O)NC(C)(C)CO)c2c(n1Cc1ccccc1F)CCCC2=O	–	1.11
CCN(CC)c1ccc(C(=O)N2CCC(CN3CCCC3=O)CC2)cn1	–	0.961
CCCCNC(=O)NC1CC(=O)N(C2CCCCCC2)C1 (stereo unspecified)	–	0.98
COc1ccc(C(=O)N2CCCC(c3nc(-c4ccncc4)ncc3-c3ccccc3C)C2)c(OC)c1 (stereo unspecified)	0.008	–
O=C(c1cc2ccccc2o1)N1CCCC(Nc2ccc(F)c(F)c2)C1 (stereo unspecified)	–	0.013
COCC(O)CNC(=O)C1CCN(c2nc(-c3ccccc3)nc3c2CCC3)CC1 (stereo unspecified)	0.87	–
Cc1cccc(CCNC(=O)c2coc(COc3cccc(F)c3F)n2)n1	–	0.968
COc1cc(CN2CCOc3ccc(C(O)c4ccncc4)cc3C2)ccc1OCc1ccccc1 (stereo unspecified)	-0.001	–
COc1ccc(C(=O)N2CCCC2)c(OC2CCN(Cc3ccc(Cl)c(F)c3)CC2)c1	0.735	–
O=C(NC1CCCC1)c1coc(COc2cccc(F)c2F)n1	–	0.837
Cc1ccccc1CCC1CCCN(C(=O)CCc2cccnc2)C1 (stereo unspecified)	0.498	–
Cc1ccccc1-n1ncc(C(C)NC(=O)C[n+]2cc([O-])on2)c1C (stereo unspecified)	0.739	–
CSc1ccc(C(=O)N2CCOc3ccc(CN4CCN(c5ccc(F)cc5)CC4)cc3C2)cc1	0.735	–
O=C(c1ccoc1)N1CCCC(CCc2ccccc2)C1 (stereo unspecified)	0.004	–
